The target of assay [1] is human neutrophil gelatinase-associated apolipoprotein (NGAL) (human) (UniProt P80188). Put plainly: SPR.
The target in assay [2] is NGAL in normal plasma (human (endogenous in plasma)) (UniProt P80188). The assay is described as follows: co-IP.

Chains of the proteins cited; added tags and fusions are not shown. Lines headed by an entry give the natural chain unless they say otherwise; changes in a name come on top. Residues count along the entry.
UniProt P80188, residues 21-198: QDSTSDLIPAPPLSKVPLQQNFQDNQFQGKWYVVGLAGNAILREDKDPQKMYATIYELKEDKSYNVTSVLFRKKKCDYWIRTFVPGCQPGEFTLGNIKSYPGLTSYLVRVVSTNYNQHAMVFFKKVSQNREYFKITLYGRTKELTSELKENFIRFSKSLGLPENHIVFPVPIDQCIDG
UniProt P03951: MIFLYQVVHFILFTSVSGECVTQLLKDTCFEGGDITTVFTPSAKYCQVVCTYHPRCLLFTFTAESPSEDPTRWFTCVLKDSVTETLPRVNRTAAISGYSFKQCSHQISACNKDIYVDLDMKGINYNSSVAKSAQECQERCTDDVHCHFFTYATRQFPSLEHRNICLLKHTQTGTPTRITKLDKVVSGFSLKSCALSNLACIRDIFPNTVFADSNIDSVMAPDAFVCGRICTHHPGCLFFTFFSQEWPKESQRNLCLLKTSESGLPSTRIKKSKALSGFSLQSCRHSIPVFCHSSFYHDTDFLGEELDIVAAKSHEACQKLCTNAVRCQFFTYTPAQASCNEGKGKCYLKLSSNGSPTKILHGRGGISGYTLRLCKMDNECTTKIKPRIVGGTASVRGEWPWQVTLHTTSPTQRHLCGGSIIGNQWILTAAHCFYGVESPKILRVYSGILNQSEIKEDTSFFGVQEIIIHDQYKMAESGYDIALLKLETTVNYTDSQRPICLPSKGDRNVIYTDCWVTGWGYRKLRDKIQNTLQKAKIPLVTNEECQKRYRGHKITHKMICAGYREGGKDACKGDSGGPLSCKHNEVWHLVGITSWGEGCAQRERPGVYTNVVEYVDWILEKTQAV
UniProt P01008, residues 33-464: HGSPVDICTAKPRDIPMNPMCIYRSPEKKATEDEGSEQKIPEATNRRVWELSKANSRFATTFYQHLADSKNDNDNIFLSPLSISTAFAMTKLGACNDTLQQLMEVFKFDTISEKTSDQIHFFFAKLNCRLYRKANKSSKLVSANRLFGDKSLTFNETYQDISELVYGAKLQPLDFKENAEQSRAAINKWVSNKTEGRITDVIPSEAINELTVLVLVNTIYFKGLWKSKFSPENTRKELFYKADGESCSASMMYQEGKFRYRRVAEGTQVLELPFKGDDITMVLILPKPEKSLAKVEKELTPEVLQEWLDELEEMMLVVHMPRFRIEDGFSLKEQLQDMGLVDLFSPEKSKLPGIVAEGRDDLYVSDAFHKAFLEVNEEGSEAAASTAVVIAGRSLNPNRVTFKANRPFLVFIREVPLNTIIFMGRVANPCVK
UniProt P08709: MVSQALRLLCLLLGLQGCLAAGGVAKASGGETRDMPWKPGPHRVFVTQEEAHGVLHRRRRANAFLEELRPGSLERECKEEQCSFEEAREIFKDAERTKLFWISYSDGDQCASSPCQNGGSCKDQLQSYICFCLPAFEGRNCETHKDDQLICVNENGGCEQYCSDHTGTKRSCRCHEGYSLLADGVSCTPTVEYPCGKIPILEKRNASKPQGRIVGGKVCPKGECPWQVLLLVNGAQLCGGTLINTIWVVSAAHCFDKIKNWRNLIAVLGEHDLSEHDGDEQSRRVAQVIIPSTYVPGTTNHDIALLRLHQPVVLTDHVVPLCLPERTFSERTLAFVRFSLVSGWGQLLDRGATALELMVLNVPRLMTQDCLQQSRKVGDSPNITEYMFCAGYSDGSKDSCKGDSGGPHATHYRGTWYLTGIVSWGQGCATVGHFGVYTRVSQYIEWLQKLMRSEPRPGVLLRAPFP
UniProt P03952: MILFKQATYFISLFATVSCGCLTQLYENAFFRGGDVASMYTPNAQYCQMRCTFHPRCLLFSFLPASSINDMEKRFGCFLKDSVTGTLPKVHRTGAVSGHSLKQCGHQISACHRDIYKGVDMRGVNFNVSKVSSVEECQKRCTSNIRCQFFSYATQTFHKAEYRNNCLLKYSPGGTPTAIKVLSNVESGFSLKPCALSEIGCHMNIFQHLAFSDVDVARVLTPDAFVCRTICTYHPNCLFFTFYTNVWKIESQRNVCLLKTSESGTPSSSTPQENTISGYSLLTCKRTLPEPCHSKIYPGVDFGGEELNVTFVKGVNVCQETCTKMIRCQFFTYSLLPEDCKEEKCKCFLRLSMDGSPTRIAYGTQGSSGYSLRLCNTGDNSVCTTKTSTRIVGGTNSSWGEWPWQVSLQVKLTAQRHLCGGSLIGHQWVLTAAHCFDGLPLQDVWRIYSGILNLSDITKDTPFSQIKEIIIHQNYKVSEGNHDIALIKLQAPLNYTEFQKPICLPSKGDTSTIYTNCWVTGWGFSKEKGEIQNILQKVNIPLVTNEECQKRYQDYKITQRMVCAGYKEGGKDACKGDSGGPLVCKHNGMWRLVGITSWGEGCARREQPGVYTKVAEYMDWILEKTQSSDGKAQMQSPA

No constants are given. Whether binding was seen depends on the method and setting. For some assays here: In cells and extracts the contact can be indirect. Some results given as binding are weak or reduced against the parent protein; the word gives no strength.

Regarding “FXIa (from UniProt P03951 19-387; P03951 388-625) (enzyme)”, the binding result in assay [1] is given as “binds”.

Turning to “antithrombin (from UniProt P01008 33-464)”, the binding result in assay [1] is on record as “binds”.

“antithrombin in normal plasma (from UniProt P01008 33-464)”: the binding result in assay [2] is listed as “binds”.

“human FVIIa (from UniProt P08709 61-212; P08709 213-466) (enzyme)”: in assay [1], the binding entry was “binds”.

Take “human kallikrein (from UniProt P03952 20-390; P03952 391-638) (enzyme)”: the binding entry in assay [1] was “binds”.

The values are drawn from doi:10.1101/2023.09.15.557008.
